From article PMC6277414
No constants are given. Whether binding was seen depends on the method and setting. Binding seen in cells or lysates may run through a third protein. Some binding calls cover weakened binding; strength is not graded here. For some assays here: Where a sequence is shown, tags or fusion partners need not be part of it.

T1: Dvl2-Flag (Dishevelled-2, Flag-tagged) (UniProt Q60838)
T1 sequence: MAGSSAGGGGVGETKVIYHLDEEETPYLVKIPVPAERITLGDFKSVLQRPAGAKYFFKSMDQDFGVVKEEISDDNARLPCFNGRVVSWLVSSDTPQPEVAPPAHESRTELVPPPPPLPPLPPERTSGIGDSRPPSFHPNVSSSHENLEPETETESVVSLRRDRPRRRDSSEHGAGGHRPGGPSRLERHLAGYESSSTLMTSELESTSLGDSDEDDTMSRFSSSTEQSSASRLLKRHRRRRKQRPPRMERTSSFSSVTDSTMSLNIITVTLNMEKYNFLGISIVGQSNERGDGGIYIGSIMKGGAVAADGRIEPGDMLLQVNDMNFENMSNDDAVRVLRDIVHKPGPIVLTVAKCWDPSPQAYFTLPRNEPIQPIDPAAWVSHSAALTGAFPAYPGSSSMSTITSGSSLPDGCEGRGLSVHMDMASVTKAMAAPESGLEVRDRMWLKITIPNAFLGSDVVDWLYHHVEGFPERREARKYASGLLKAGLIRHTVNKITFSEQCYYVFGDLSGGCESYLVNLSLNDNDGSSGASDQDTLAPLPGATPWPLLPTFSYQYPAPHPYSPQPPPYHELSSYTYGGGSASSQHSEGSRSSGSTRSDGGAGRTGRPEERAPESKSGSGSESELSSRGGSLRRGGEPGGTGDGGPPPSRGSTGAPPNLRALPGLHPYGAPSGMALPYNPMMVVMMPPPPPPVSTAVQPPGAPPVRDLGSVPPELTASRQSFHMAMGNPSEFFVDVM

T2: Dishevelled-2 (Dvl2), endogenous (mouse (endogenous in primary myoblasts)) (UniProt Q60838)
T2 sequence: T1 sequence

B1: Islr-GFP (immunoglobulin superfamily containing leucine-rich repeat, GFP-tagged) (protein, UniProt Q6GU68 19-428)
chain: CPEPCDCGEKYGFQIADCAYRDLEGVPPGFPANVTTLSLSANRLPGLPEGAFREVPLLQSLWLAHNEIRSVAIGALAPLSHLKSLDLSHNLLSEFAWSDLHNLSALQLLKMDSNELAFIPRDAFSSLSALRSLQLNHNRLHALAEGTFAPLTALSHLQINDNPFDCTCGIVWFKTWALASAVSIPEQDNIACTTPHVLKGIPLGRLPPLPCSAPSVQLSYQPSQDGAELRPGFVLALHCDVDGQPVPQLHWHIHTPGGTVEIASPNVGTDGRALPGALATSGQPRFQAFANGSLLIPDFGKLEEGTYSCLATNELGSAESSVNVALATPGEGGEDAVGHKFHGKAVEGKGCYTVDNEVQPSGPEDNVVIIYLSRAGPPEAAIAADGRPAQQFSGILLLGQSLLVLSFFYF
B2: Islr (immunoglobulin superfamily containing leucine-rich repeat), endogenous (protein, UniProt Q6GU68 19-428)
chain: B1 chain

How the values were obtained:
[1] = target: T1, Dvl2-Flag (Dishevelled-2, Flag-tagged); test: co-IP; reciprocal co-IP from HEK293T cells co-transfected with Islr-GFP and Dvl2-Flag; IP lysis buffer; precipitated with Flag or GFP antibody and protein G beads; washed three times; Western blot
[2] = target: T2, Dishevelled-2 (Dvl2), endogenous (mouse (endogenous in primary myoblasts)); test: co-IP; reciprocal co-IP of endogenous Islr and Dvl2 from primary myoblasts cultured for 4 d in differentiation medium; Western blot

Row | Binder | binding [1] | binding [2]
1 | B1 | binds | –
2 | B2 | – | binds
